Assay results taken from doi:10.1101/2025.01.13.632716.
Results are given in words; binding and its absence hold for the method and conditions named. Binding seen in cells or lysates may run through a third protein. A yes stands for co-enrichment or nearness to the bait. Other partners may have been found.

Target: C-terminal tandem affinity purification (TAP)-tagged IncA (Caulobacter crescentus)
Experiment: affinity purification with mass spectrometry

- binding: binds
B1: β-sliding clamp DnaN (protein, UniProt B8GXP6 1-372)
chain: MKLTIERAALLKALGHVQSVVERRNTIPILSNILLSAEGDRLSFSATDLDMEIIDEGFAQIDVPGQITAPAHTLYEIVRKLPDGADVSLSFSGDDPRLVIQAGRSRFNLPVLPAGDFPVMSSDGLSSRIAVDTNELIRLIDKTRFAISTEETRYYLNGLYVHTVNEGGETKLRAVATDGHRLALAEMPAPEGAVGIPGVIVPRKTIAEARRLMESAGETVDLQVSPQKVRFEFGAAALTSKVIDGAFPDYMRVIPRDNAKILTLDNDLFAKAVDRVATISAEKSRSVKLAVEPGRITLTVRNMEAGQAVEEVEVDYDGEPFEIGFNARYLLDVCGQIAGPQAEFRFADPASPTLVVDPVDPGVKYVLMPLRV
